The source of these data is publication PMC10082830, “A tailored tetravalent peptide displays dual functions to inhibit amyloid β production and aggregation” (Communications Biology, 2023).

The target in this test is T1, biotinylated LME-mono.
T1 sequence (peptide, biotin (position not stated)): PKLRMKE
The experiment in a line: pull-down; 7WD10 cells treated with biotinylated LME-tet (50 µM) or LME-mono (200 µM) for 30 min at 37 °C, lysed; lysates with streptavidin beads 24 h at 4 °C; western blot; only the target purified. On the technique in general: In western blotting, separated proteins are transferred to a membrane and probed.

Results are given in words; binding and its absence hold for the method and conditions named. In cells and extracts the contact can be indirect.

Regarding “C-terminal fragment β (C99) (human) (domain or fragment)”, the binding entry was “no binding (tested: 200 µM LME-mono)”.
